{"source": "PubChem BioAssay AID2685", "about": "(National Center for Advancing Translational Sciences (NCATS), 2010)", "test": "qHTS Assay for Lipid Storage Modulators in Drosophila S3 Cells;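 for cell number change: cells counted by Cell Tracker Red CMTPX staining in the red channel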", "settings": "BODIPY lipid droplet fluorescence, 18-24 h; for cell number change: measured here: cell count max response, cells fed with added oleic acid", "in_short": "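Laser-scanning cytometry quantifies lipid droplet accumulation (500–530 nm total intensity; droplet/cell object ratio) in oleic acid-fed (400 uM added) Drosophila S3 cells treated with a concentration series. 20 uM Triacsin C defined 100% inhibition.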", "key": {"[1]": {"settings": "measured here: lipid fluorescence (Fed channel) AC50, cells fed with added oleic acid"}, "[2]": {"settings": "measured here: cell number channel AC50, cells fed with added oleic acid"}}, "note": "This is one part of the list. Further columns of the screen follow, without active or inactive calls. The list favours compounds with an active or inconclusive main result. Words in brackets tell the shape of the fitted curve; partial curves, single points and poor fits give uncertain potencies."}
{"compound": "COc1cccc2sc(NC(=O)c3ccc(S(=O)(=O)N4CCOCC4)cc3)nc12", "values": [{"measurement": "cell number change", "value": 8.47, "unit": "%"}, {"measurement": "AC50", "setting": "[1]", "value": "2310 nM [rising, partial curve]"}]}
{"compound": "O=C(Nc1ccc2nc3n(c(=O)c2c1)CCCCC3)c1ccccc1[N+](=O)[O-]", "values": [{"measurement": "cell number change", "value": -39.9, "unit": "%"}, {"measurement": "AC50", "setting": "[2]", "value": "13000 nM [falling, single point]"}, {"measurement": "AC50", "setting": "[1]", "value": "2310 nM [falling, partial curve]"}]}
{"compound": "Cc1noc(C)c1C(=O)Nc1ccc(F)cc1F", "values": [{"measurement": "cell number change", "value": 21, "unit": "%"}, {"measurement": "AC50", "setting": "[1]", "value": "1460 nM [falling, partial curve]"}]}
{"compound": "CCOc1ccc(NC(=O)Nc2ccc(Cc3ccncc3)cc2)cc1", "values": [{"measurement": "cell number change", "value": -0.604, "unit": "%"}, {"measurement": "AC50", "setting": "[1]", "value": "1840 nM [rising, partial curve, poor fit]"}]}
{"compound": "COc1ccc(N2C(=O)CC(N3CCC(C(N)=O)CC3)C2=O)cc1", "note": "(stereo unspecified)", "values": [{"measurement": "cell number change", "value": -13.9, "unit": "%"}, {"measurement": "AC50", "setting": "[2]", "value": "2060 nM [falling, single point]"}]}
{"compound": "CN(C)CCCN(C(=O)c1ccc(C(=O)c2ccccc2)cc1)c1nc2cc3c(cc2s1)OCO3", "values": [{"measurement": "cell number change", "value": -33.4, "unit": "%"}, {"measurement": "AC50", "setting": "[2]", "value": "1160 nM [falling, full curve, poor fit]"}]}
{"compound": "COc1ccc(S(=O)(=O)/N=C2/NC(=O)/C(=C/c3ccco3)S2)cc1", "values": [{"measurement": "cell number change", "value": -7.65, "unit": "%"}]}
{"compound": "O=C(c1ccco1)N1CCN(C(=O)C2c3ccccc3Oc3ccccc32)CC1", "values": [{"measurement": "cell number change", "value": -12, "unit": "%"}, {"measurement": "AC50", "setting": "[1]", "value": "29100 nM [falling, single point]"}]}
{"compound": "C=CCn1c(SCC(=O)Nc2ccccc2C)nc(O)cc1=O", "values": [{"measurement": "cell number change", "value": -19.1, "unit": "%"}, {"measurement": "AC50", "setting": "[1]", "value": "6510 nM [falling, single point]"}]}
{"compound": "COC(=O)c1ccc(OCC(=O)c2cccc(OC)c2)cc1", "values": [{"measurement": "cell number change", "value": 83.3, "unit": "%"}, {"measurement": "AC50", "setting": "[2]", "value": "23100 nM [rising, single point]"}, {"measurement": "AC50", "setting": "[1]", "value": "23100 nM [rising, partial curve]"}]}
{"compound": "c1ccc(C2=Nc3ccccc3SC2c2nc3ccccc3[nH]2)cc1", "note": "(stereo unspecified)", "values": [{"measurement": "cell number change", "value": -32.7, "unit": "%"}, {"measurement": "AC50", "setting": "[2]", "value": "32600 nM [falling, single point]"}]}
{"compound": "O=C(NCc1ccon1)C1CCC(=O)N(CCc2cccc(F)c2)C1", "note": "(stereo unspecified)", "values": [{"measurement": "cell number change", "value": 1.1, "unit": "%"}, {"measurement": "AC50", "setting": "[1]", "value": "29100 nM [rising, single point]"}]}
{"compound": "Cc1ccc(N(C(C)C(=O)NCc2ccncc2)S(C)(=O)=O)cc1C", "note": "(stereo unspecified)", "values": [{"measurement": "cell number change", "value": -7.71, "unit": "%"}, {"measurement": "AC50", "setting": "[1]", "value": "291 nM [falling, partial curve, poor fit]"}]}
{"compound": "CSc1ccccc1OCc1cc(C(=O)N2CCCC(C)C2)no1", "note": "(stereo unspecified)", "values": [{"measurement": "cell number change", "value": -32.8, "unit": "%"}, {"measurement": "AC50", "setting": "[2]", "value": "29100 nM [falling, single point]"}, {"measurement": "AC50", "setting": "[1]", "value": "29100 nM [falling, single point]"}]}
{"compound": "COc1ccc(-c2csc(Nc3cccnc3)n2)cc1", "values": [{"measurement": "cell number change", "value": -73.7, "unit": "%"}, {"measurement": "AC50", "setting": "[2]", "value": "20600 nM [falling, single point]"}]}
{"compound": "C=CCSc1nnc2c(n1)OC(c1ccco1)Nc1ccccc1-2", "note": "(stereo unspecified)", "values": [{"measurement": "cell number change", "value": -16.4, "unit": "%"}, {"measurement": "AC50", "setting": "[1]", "value": "18400 nM [rising, single point]"}]}
{"compound": "CC1CCCCN1C(=O)COC(=O)c1cc([N+](=O)[O-])ccc1N", "note": "(stereo unspecified)", "values": [{"measurement": "cell number change", "value": 31.6, "unit": "%"}, {"measurement": "AC50", "setting": "[2]", "value": "9200 nM [rising, partial curve]"}]}
{"compound": "O=C(CCSCc1ccc(Cl)cc1)NCCc1ccccc1", "values": [{"measurement": "cell number change", "value": -15.7, "unit": "%"}, {"measurement": "AC50", "setting": "[1]", "value": "1840 nM [rising, partial curve, poor fit]"}]}
{"compound": "Cc1nn(-c2ccccc2)c2c1C1(C(=O)Nc3ccccc31)N1C(=N2)Sc2ccccc21", "note": "(stereo unspecified)", "values": [{"measurement": "cell number change", "value": -24.7, "unit": "%"}, {"measurement": "AC50", "setting": "[1]", "value": "6510 nM [falling, partial curve]"}]}
{"compound": "CSc1nnc(-c2cccn(Cc3ccccc3)c2=O)o1", "values": [{"measurement": "cell number change", "value": 23.1, "unit": "%"}, {"measurement": "AC50", "setting": "[1]", "value": "580 nM [falling, single point]"}]}
{"compound": "CNc1nnc(SCC(=O)c2cc(C)n(C3CC3)c2C)s1", "values": [{"measurement": "cell number change", "value": -5.65, "unit": "%"}, {"measurement": "AC50", "setting": "[1]", "value": "580 nM [falling, single point]"}]}
{"compound": "COC(=O)C(O)(CC(=O)Nc1cc(OC)c(OC)c(OC)c1)C(F)(F)F", "note": "(stereo unspecified)", "values": [{"measurement": "cell number change", "value": 10.1, "unit": "%"}, {"measurement": "AC50", "setting": "[1]", "value": "1030 nM [rising, full curve, poor fit]"}]}
{"compound": "Cc1cc2occ(CC(=O)NCc3cccs3)c2cc1C(C)C", "values": [{"measurement": "AC50", "setting": "[1]", "value": "651 nM [falling, full curve]"}]}
{"compound": "CCOc1ccc(NC(=O)CSc2nc3c([nH]c4ccccc43)c(=O)n2C)cc1", "values": [{"measurement": "cell number change", "value": 9.88, "unit": "%"}, {"measurement": "AC50", "setting": "[1]", "value": "130 nM [rising, full curve, poor fit]"}]}
{"compound": "Cc1cc(Br)ccc1NC(=O)CNC(=O)CSc1n[nH]c(N)n1", "values": [{"measurement": "AC50", "setting": "[2]", "value": "651 nM [rising, full curve]"}]}
{"compound": "Cc1ccccc1C(=O)Nc1ccc(CN2CCOCC2)cc1", "values": [{"measurement": "cell number change", "value": 21.1, "unit": "%"}]}
{"compound": "COc1cc(OC)nc(NC(=O)CCl)n1", "values": [{"measurement": "cell number change", "value": 3, "unit": "%"}, {"measurement": "AC50", "setting": "[1]", "value": "29100 nM [rising, single point]"}]}
{"compound": "CCOC(=O)c1c(NC(=O)CCl)sc(CN(C)C)c1-c1ccccc1", "values": [{"measurement": "cell number change", "value": -5.13, "unit": "%"}]}
{"compound": "Cc1c(C(=O)O)oc2ccc(S(=O)(=O)N3CCCCC3C(=O)O)cc12", "note": "(stereo unspecified)", "values": [{"measurement": "cell number change", "value": 26.2, "unit": "%"}, {"measurement": "AC50", "setting": "[1]", "value": "29100 nM [rising, single point]"}]}
{"compound": "COc1ccc(S(=O)(=O)N2CCOCC2)cc1NC(=O)c1ccncc1", "values": [{"measurement": "cell number change", "value": 0.13, "unit": "%"}, {"measurement": "AC50", "setting": "[1]", "value": "4.61 nM [falling, full curve, poor fit]"}]}
{"compound": "CCOC(=O)N1CCC(N(CCN(C)C)C(=S)Nc2cc(Cl)ccc2C)CC1", "values": [{"measurement": "cell number change", "value": 21.6, "unit": "%"}]}
{"compound": "O=C(Nc1ccc(Cl)cc1C(=O)Nc1ccncc1)c1ccco1", "values": [{"measurement": "cell number change", "value": 12.3, "unit": "%"}, {"measurement": "AC50", "setting": "[2]", "value": "517 nM [rising, single point]"}, {"measurement": "AC50", "setting": "[1]", "value": "651 nM [rising, full curve]"}]}
{"compound": "N#CCCNS(=O)(=O)c1ccc(C(=O)OCC(=O)Nc2ccc3c(c2)OCO3)cc1", "values": [{"measurement": "cell number change", "value": 37.3, "unit": "%"}, {"measurement": "AC50", "setting": "[2]", "value": "14600 nM [rising, partial curve, poor fit]"}, {"measurement": "AC50", "setting": "[1]", "value": "4110 nM [rising, full curve]"}]}
{"compound": "N#CC(c1ccc(=O)[nH]n1)c1ccc(Cl)cc1Cl", "note": "(stereo unspecified)", "values": [{"measurement": "cell number change", "value": 5.73, "unit": "%"}]}
{"compound": "N#CC(c1ccccc1)(c1ncc(C(F)(F)F)cc1Cl)N1CCOCC1", "note": "(stereo unspecified)", "values": [{"measurement": "cell number change", "value": 10.9, "unit": "%"}, {"measurement": "AC50", "setting": "[1]", "value": "291 nM [rising, full curve, poor fit]"}]}
{"compound": "Cc1ccc(S(=O)(=O)CC(=O)Nc2ccc3nc(C)sc3c2)cc1", "values": [{"measurement": "cell number change", "value": -3.95, "unit": "%"}, {"measurement": "AC50", "setting": "[1]", "value": "4610 nM [rising, partial curve]"}]}
{"compound": "Cc1ccc(CN2CCN(c3ccccn3)CC2)s1", "values": [{"measurement": "cell number change", "value": 32.7, "unit": "%"}, {"measurement": "AC50", "setting": "[2]", "value": "3260 nM [rising, full curve]"}]}
{"compound": "Cc1ccc(S(=O)(=O)CCC(=O)Nc2ccc(Br)cc2)cc1", "values": [{"measurement": "cell number change", "value": -22.5, "unit": "%"}]}
{"compound": "Cc1oc(C)c(C(=O)Nc2ccc(CC(=O)O)cc2)c1C(=O)Nc1ccc(CC(=O)O)cc1", "values": [{"measurement": "cell number change", "value": -21.8, "unit": "%"}, {"measurement": "AC50", "setting": "[2]", "value": "51.7 nM [falling, full curve, poor fit]"}, {"measurement": "AC50", "setting": "[1]", "value": "731 nM [falling, full curve, poor fit]"}]}
